{"source": "PubChem BioAssay AID1224830 – NIAID | 2016", "assay": "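Genes whose knock-down alters the TNF-alpha reporter response to LPS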 (primary screen)", "cell system": "human THP-1 monocytic leukaemia cells, TNF dual-luciferase reporter clone, PMA-differentiated to macrophage-like cells", "reagent": "siRNA pool against human genes, 50 nM", "duration": "LPS for 4 h, given about 3 days after siRNA transfection", "conditions": "bacterial LPS (TLR4 ligand), 10 ng/ml", "read-out": "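TNF firefly reporter luminescence divided by renilla, normalised to the plate median, then turned into a robust z-score for each replicate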", "scale": "TNF reporter robust z-score: higher = stronger TNF reporter response to LPS", "rule for the call": "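Each well counts as active if its z-score is over 2.8 or under -1.5; controls are left without a call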", "note": "The whole screen tested about 18,000 reagents; shown is an unselected part. In the full data, about 2,900 (16%) are marked active. 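Calls are made per well; low scores hint the gene aids the LPS response, high scores that it dampens it.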 Repeated entries: four replicate wells of each siRNA pool."}
The first 4 entries as a preview:
{"target":"CDC25C","TNF reporter robust z-score":-0.73,"outcome":"inactive"}
{"target":"CDC25C","TNF reporter robust z-score":-1.76,"outcome":"active"}
{"target":"CDC25C","TNF reporter robust z-score":-1.5,"outcome":"inactive"}
{"target":"CDC25C","TNF reporter robust z-score":-1.44,"outcome":"inactive"}

The list itself, from the first entry:
{"target":"CDC25C","TNF reporter robust z-score":-0.73,"outcome":"inactive"}
{"target":"CDC25C","TNF reporter robust z-score":-1.76,"outcome":"active"}
{"target":"CDC25C","TNF reporter robust z-score":-1.5,"outcome":"inactive"}
{"target":"CDC25C","TNF reporter robust z-score":-1.44,"outcome":"inactive"}
{"target":"PKD1L2","TNF reporter robust z-score":-1.01,"outcome":"inactive"}
{"target":"PKD1L2","TNF reporter robust z-score":-0.66,"outcome":"inactive"}
{"target":"PKD1L2","TNF reporter robust z-score":0.66,"outcome":"inactive"}
{"target":"PKD1L2","TNF reporter robust z-score":-0.21,"outcome":"inactive"}
{"target":"ACBD4","TNF reporter robust z-score":2.64,"outcome":"inactive"}
{"target":"ACBD4","TNF reporter robust z-score":3.63,"outcome":"active"}
{"target":"ACBD4","TNF reporter robust z-score":0.62,"outcome":"inactive"}
{"target":"ACBD4","TNF reporter robust z-score":0.32,"outcome":"inactive"}
{"target":"NECTIN4","TNF reporter robust z-score":-1.53,"outcome":"active"}
{"target":"NECTIN4","TNF reporter robust z-score":-1.12,"outcome":"inactive"}
{"target":"NECTIN4","TNF reporter robust z-score":-1.55,"outcome":"active"}
{"target":"NECTIN4","TNF reporter robust z-score":-1.18,"outcome":"inactive"}
{"target":"OMA1","TNF reporter robust z-score":-0.81,"outcome":"inactive"}
{"target":"OMA1","TNF reporter robust z-score":0.92,"outcome":"inactive"}
{"target":"OMA1","TNF reporter robust z-score":-1.37,"outcome":"inactive"}
{"target":"OMA1","TNF reporter robust z-score":-0.28,"outcome":"inactive"}
{"target":"UBE2E3","TNF reporter robust z-score":0.41,"outcome":"inactive"}
{"target":"UBE2E3","TNF reporter robust z-score":3.74,"outcome":"active"}
{"target":"UBE2E3","TNF reporter robust z-score":0.02,"outcome":"inactive"}
{"target":"UBE2E3","TNF reporter robust z-score":1.52,"outcome":"inactive"}
{"target":"AKR1B15","TNF reporter robust z-score":-0.72,"outcome":"inactive"}
{"target":"AKR1B15","TNF reporter robust z-score":-1.47,"outcome":"inactive"}
{"target":"AKR1B15","TNF reporter robust z-score":-0.88,"outcome":"inactive"}
{"target":"AKR1B15","TNF reporter robust z-score":-0.66,"outcome":"inactive"}
{"target":"SHTN1","TNF reporter robust z-score":-1.04,"outcome":"inactive"}
{"target":"SHTN1","TNF reporter robust z-score":-0.45,"outcome":"inactive"}
{"target":"SHTN1","TNF reporter robust z-score":0,"outcome":"inactive"}
{"target":"SHTN1","TNF reporter robust z-score":0.64,"outcome":"inactive"}
{"target":"DPF1","TNF reporter robust z-score":-1.28,"outcome":"inactive"}
{"target":"DPF1","TNF reporter robust z-score":2.05,"outcome":"inactive"}
{"target":"DPF1","TNF reporter robust z-score":-1.58,"outcome":"active"}
{"target":"DPF1","TNF reporter robust z-score":-1.05,"outcome":"inactive"}
{"target":"PRAM1","TNF reporter robust z-score":-0.13,"outcome":"inactive"}
{"target":"PRAM1","TNF reporter robust z-score":0.51,"outcome":"inactive"}
{"target":"PRAM1","TNF reporter robust z-score":-0.24,"outcome":"inactive"}
{"target":"PRAM1","TNF reporter robust z-score":0.75,"outcome":"inactive"}
{"target":"IKZF5","TNF reporter robust z-score":-0.21,"outcome":"inactive"}
{"target":"IKZF5","TNF reporter robust z-score":0.09,"outcome":"inactive"}
{"target":"IKZF5","TNF reporter robust z-score":0.03,"outcome":"inactive"}
{"target":"IKZF5","TNF reporter robust z-score":-0.22,"outcome":"inactive"}
{"target":"TOP1","TNF reporter robust z-score":0.25,"outcome":"inactive"}
{"target":"TOP1","TNF reporter robust z-score":1.03,"outcome":"inactive"}
{"target":"TOP1","TNF reporter robust z-score":0.83,"outcome":"inactive"}
{"target":"TOP1","TNF reporter robust z-score":1.4,"outcome":"inactive"}
